Test [1] concerns the target His-tagged CP47 (CP47 apopolypeptide with a C-terminal His6-tag) (Synechocystis sp. PCC 6803) (UniProt P05429). The test can be described thus: pull-down; RC47-His isolated by the His6-tag of CP47: Ni2+-affinity chromatography of detergent-solubilized thylakoid membranes of ΔCP43/CP47-His, then DEAE anion exchange (KPN buffer, 0.04% β-DM, MgSO4 gradient 5-200 mM); SDS-PAGE and immunoblots.

The chains behind the UniProt entries cited, without tags or fusion partners.
UniProt P05429: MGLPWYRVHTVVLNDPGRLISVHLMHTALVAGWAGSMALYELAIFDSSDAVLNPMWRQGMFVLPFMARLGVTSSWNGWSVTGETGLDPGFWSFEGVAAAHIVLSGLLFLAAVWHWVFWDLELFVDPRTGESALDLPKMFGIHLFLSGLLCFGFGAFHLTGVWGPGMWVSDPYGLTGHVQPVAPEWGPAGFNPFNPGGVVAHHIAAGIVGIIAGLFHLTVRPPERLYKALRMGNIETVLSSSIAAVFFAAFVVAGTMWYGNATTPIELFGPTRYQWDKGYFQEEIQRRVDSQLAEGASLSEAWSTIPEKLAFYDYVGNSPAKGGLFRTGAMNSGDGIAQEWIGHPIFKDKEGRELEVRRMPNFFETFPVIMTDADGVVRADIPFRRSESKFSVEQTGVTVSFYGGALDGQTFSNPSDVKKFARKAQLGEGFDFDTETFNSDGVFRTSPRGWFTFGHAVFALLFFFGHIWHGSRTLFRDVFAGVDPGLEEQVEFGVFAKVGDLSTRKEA

The target of test [2] is RC47 assembly complex (PSII core complex lacking CP43), untagged (Synechocystis sp. PCC 6803 (endogenous)) (UniProt P05429). The test can be described thus: native gel or EMSA; two-dimensional gel: 4-14% CN-PAGE, then 12-20% SDS-PAGE, of solubilized thylakoid membranes (4 µg Chl a) of radiolabelled ΔCP43 cells; Sypro Orange stain, immunoblots, autoradiogram. For orientation: Mobility shift assays separate free from complexed probe on a gel.

Test [3] has as its target His-tagged CP47 (CP47 apopolypeptide with a C-terminal His6-tag) (Synechocystis sp. PCC 6803), P05429. The test can be described thus: pull-down; RC47-His isolated by the His6-tag of CP47: Ni2+-affinity chromatography of detergent-solubilized thylakoid membranes of ΔCP43/CP47-His, then DEAE anion exchange (KPN buffer, 0.04% β-DM, MgSO4 gradient 5-200 mM); SDS-PAGE and immunoblots. The note with it: remark: other sources report otherwise. On the technique in general: A western blot detects proteins with antibodies after separation by electrophoresis.

These are yes or no findings as the source states them, for the method shown. For part of these data: Binding seen in cells or lysates may run through a third protein. Some results given as binding are weak or reduced against the parent protein; the word gives no strength.

B1: Psb28 (Sll1398) (protein, UniProt Q55356 1-112)
chain: MAEIQFSKGVAETVVPEVRLSKSKNGQSGMAKFYFLEPTILAKESTDDITGMYLIDDEGEIITREVKGKFINGRPTAIEATVILNSQPEWDRFMRFMERYGAENGLGFSKSE
In the case of B1, the binding entry in test [1] and in test [2] was “binds” each time.

B2: PsbO, P10549 29-274 (protein)
chain: VDKSQLTYDDIVNTGLANVCPEISSFTRGTIEVEPNTKYFVSDFCMEPQEYFVKEEPVNKRQKAEYVKGKVLTRQTTSLEQIRGSIAVGADGTLTFKEKDGIDFQPITVLLPGGEEVPFFFTVKNFTGTTEPGFTSINSSTDFVGDFNVPSYRGAGFLDPKARGLYTGYDNAVALPSAADKFRTNKKETPLGKGTLSLQVTQVDGSTGEIAGIFESEQPSDTDLGAKEPLDVKVRGIFYGRVDTDV
Turning to B2, in test [3], the binding entry is listed as “no binding”.

The values above are taken from PMC3497071.
